In PubChem BioAssay AID504444 (National Center for Advancing Translational Sciences (NCATS), 2011):
In all, about 360,000 compounds went through this assay and about 7,500 (2.1%) were called active. This list was built around the results that the source calls inconclusive (neither active nor inactive); the mix of calls is not that of the screen. Calls follow the shape of the dose curve; as a rule, active = well fitted inhibition curve with a large enough effect; inconclusive = small, poorly fitted or top-dose-only effect, or effect the other way; inactive = flat fitted curve, though single readings scatter. Potencies beside an inconclusive call are fits to weak or partial responses and may not hold up.

experiment: Nrf2 qHTS screen for inhibitors; conditions: A549 ARE-Fluc reporter, luciferase luminescence, 18-24 h; series mostly up to 46 µM; also: nearly all actives have a fitted effect of over 60% in size
Procedure, shortened: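 Concentration-response testing used A549 ARE_Fluc cells at 5000 cells/well. Following an 18-24 h compound incubation, viability was read by fluorescence (Ex 405/Em 525) and luciferase output by luminescence.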
Potency is read from the fitted curve at half-maximal effect.

**Q.** With `CC(C)N=C1NN=C(c2cccs2)CS1` as the compound, how does the Potency read?
**A.** inconclusive: 8.2 µM [activator, partial curve]

**Q.** For `CCNc1nc(C)nc2c1cnn2C`, which Potency is on record?
**A.** inactive

**Q.** For `CS(=O)(=O)N1CCN(c2nc(-c3cccs3)nc3ccccc23)CC1`, which Potency is on record?
**A.** inconclusive: 2.59 µM [falling, partial curve, poor fit]

**Q.** Which Potency does the source give for `Clc1ccc(CNc2ccccc2NCc2ccc(Cl)nc2)cn1` here?
**A.** inconclusive: 20.6 µM [falling, single point]

**Q.** With `CO/N=C/C(=N\Nc1ccc(OC)cc1)C(=O)c1ccc(OC)cc1` as the compound, how does the Potency read?
**A.** inconclusive: 32.6 µM [falling, single point]

**Q.** For `Cc1nn(C(C)C(=O)NC2CCCCC2)c(=O)c2c1sc1ccccc12` (stereo not given), which Potency is on record?
**A.** inactive

**Q.** Which Potency does the source give for `COc1cc([N+](=O)[O-])cc(/C=N/NC(=O)c2ccc(C)nc2)c1O` here?
**A.** inconclusive: 29.1 µM [falling, single point]

**Q.** For `COc1ccc(-c2nnc(SC(C)C(=O)Nc3cccc(Cl)c3)o2)cc1` (stereo not given), which Potency is on record?
**A.** inconclusive: 16.4 µM [activator, single point]

**Q.** For `COc1ccc(CCNC(=O)Cc2c(C)c3c(cc(C)c4c(C)coc43)oc2=O)cc1OC`, which Potency is on record?
**A.** inactive

**Q.** For `CCN(c1ccccc1)C(CNS(=O)(=O)c1ccccc1)c1ccccc1` (stereo not given), which Potency is on record?
**A.** active: 23.1 µM

**Q.** Which Potency does the source give for `COc1ccc(CCNC(=O)c2ccc3c(c2)CCN3S(C)(=O)=O)cc1` here?
**A.** inactive

**Q.** Which Potency does the source give for `Cc1nn(-c2ccccc2)nc1C(=O)Oc1cc(C(F)(F)F)nn1-c1ccccc1` here?
**A.** inactive

**Q.** With `O=C(CCCn1c(=S)[nH]c2ccsc2c1=O)Nc1ccc2c(c1)OCO2` as the compound, how does the Potency read?
**A.** inconclusive: 4.61 µM [falling, partial curve, poor fit]

**Q.** With `COc1ccccc1-c1cc(C(=O)N2CCCC2)no1` as the compound, how does the Potency read?
**A.** inconclusive: 3.66 µM [activator, full curve]

**Q.** With `COc1cc(C(=O)CC2(O)C(=O)N(Cc3ccccc3Cl)c3ccccc32)cc(OC)c1OC` (stereo not given) as the compound, how does the Potency read?
**A.** inactive

**Q.** With `Cc1ccc(O)c(N=Nc2nccs2)c1` as the compound, how does the Potency read?
**A.** inconclusive: 29.1 µM [falling, single point]

**Q.** For `COc1ccc(OC)c(C2NC(=O)NC(C)=C2C(=O)Nc2cc(C)cc(C)c2)c1` (stereo not given), which Potency is on record?
**A.** inconclusive: 11.6 µM [falling, partial curve, poor fit]

**Q.** For `O=C(NC(=S)Nc1ccccc1F)c1ccc(Br)o1`, which Potency is on record?
**A.** inconclusive: 16.4 µM [activator, partial curve, poor fit]

**Q.** With `CCOC(=O)c1c(C)[nH]c(C(=O)OCc2ccccc2F)c1C` as the compound, how does the Potency read?
**A.** inconclusive: 11.6 µM [activator, partial curve]

**Q.** With `Cc1ccc(Nc2ncnc3c2oc2ccccc23)cc1` as the compound, how does the Potency read?
**A.** inconclusive: 4.61 µM [activator, full curve]
